Article doi:10.1101/2021.02.19.432005 (bioRxiv, 2021)
No constants are given. Whether binding was seen depends on the method and setting. Some entries that bind do so weakly or less than the wild type. For some of these results: Tags and fused reporters may be left off the sequences shown.

Sequences of proteins named here, by UniProt entry; tags and fusion partners are left off. Residues count along the entry.
UniProt Q01705, 828-1058: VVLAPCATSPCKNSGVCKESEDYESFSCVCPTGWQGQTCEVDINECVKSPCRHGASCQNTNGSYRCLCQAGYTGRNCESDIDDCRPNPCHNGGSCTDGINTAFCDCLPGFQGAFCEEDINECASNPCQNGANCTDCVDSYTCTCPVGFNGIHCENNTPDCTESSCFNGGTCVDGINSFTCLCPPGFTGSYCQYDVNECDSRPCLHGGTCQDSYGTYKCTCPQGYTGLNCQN
UniProt Q01705, 294-526: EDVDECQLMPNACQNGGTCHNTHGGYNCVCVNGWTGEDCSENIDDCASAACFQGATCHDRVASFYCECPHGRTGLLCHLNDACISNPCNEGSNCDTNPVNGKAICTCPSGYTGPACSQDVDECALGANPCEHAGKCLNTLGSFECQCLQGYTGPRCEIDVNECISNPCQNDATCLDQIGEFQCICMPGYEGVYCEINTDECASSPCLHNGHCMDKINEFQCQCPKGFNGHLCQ

B1: Jagged1^EGF8-11,Fc (Fc-tagged, covalently dimerized) (Fc fusion)
chain: DIDECASNPCLNGGHCQNEINRFQCLCPTGFSGNLCQLDIDYCEPNPCQNGAQCYNRASDYFCKCPEDYEGKNCSHLKDHCRTTTCEVIDSCTVAMASNDTPEGVRYISSNVCGPHGKCKSQSGGKFTCDCNKGFTGTYCHENINDCESNPCKNGGTCIDGVNSYKCICSDGWEGAHCE
B2: Jagged1^CRD,Fc (Fc-tagged, covalently dimerized) (Fc fusion)
chain: EVSGRSCITMGRVILDGAKWDDDCNTCQCLNGRVACSKVWCGPRPCRLHKSHNECPSGQSCIPVLDDQCFVRPCTGVGECRSSSLQPVKTKCTSDSYYQDNCANITFTFNKEMMSPGLTTEHICSELRNLNILKNVSAEYSIYIACEPSLSANNEIHVAISAEDIRDDGNPVKEITDKIIDLVSKRDGNSSLIAAVAEVRVQRRPLKNRTD
B3: Jagged1 full ectodomain, wild type (Jagged1^fe,wt) (domain or fragment)
chain: ASGQFELEILSMQNVNGELQNGNCCGGVRNPGDRKCTRDECDTYFKVCLKEYQSRVTAGGPCSFGSGSTPVIGGNTFNLKASRGNDRNRIVLPFSFAWPRSYTLLVEAWDSSNDTIQPDSIIEKASHSGMINPSRQWQTLKQNTGIAHFEYQIRVTCDDHYYGFGCNKFCRPRDDFFGHYACDQNGNKTCMEGWMGPDCNKAICRQGCSPKHGSCKLPGDCRCQYGWQGLYCDKCIPHPGCVHGTCNEPWQCLCETNWGGQLCDKDLNYCGTHQPCLNRGTCSNTGPDKYQCSCPEGYSGPNCEIAEHACLSDPCHNRGSCKETSSGFECECSPGWTGPTCSTNIDDCSPNNCSHGGTCQDLVNGFKCVCPPQWTGKTCQLDANECEAKPCVNARSCKNLIASYYCDCLPGWMGQNCDININDCLGQCQNDASCRDLVNGYRCICPPGYAGDHCERDIDECASNPCLNGGHCQNEINRFQCLCPTGFSGNLCQLDIDYCEPNPCQNGAQCYNRASDYFCKCPEDYEGKNCSHLKDHCRTTTCEVIDSCTVAMASNDTPEGVRYISSNVCGPHGKCKSQSGGKFTCDCNKGFTGTYCHENINDCESNPCKNGGTCIDGVNSYKCICSDGWEGAHCENNINDCSQNPCHYGGTCRDLVNDFYCDCKNGWKGKTCHSRDSQCDEATCNNGGTCYDEVDTFKCMCPGGWEGTTCNIARNSSCLPNPCHNGGTCVVNGDSFTCVCKEGWEGPICTQNTNDCSPHPCYNSGTCVDGDNWYRCECAPGFAGPDCRININECQSSPCAFGATCVDEINGYQCICPPGHSGAKCHEVSGRSCITMGRVILDGAKWDDDCNTCQCLNGRVACSKVWCGPRPCRLHKSHNECPSGQSCIPVLDDQCFVRPCTGVGECRSSSLQPVKTKCTSDSYYQDNCANITFTFNKEMMSPGLTTEHICSELRNLNILKNVSAEYSIYIACEPSLSANNEIHVAISAEDIRDDGNPVKEITDKIIDLVSKRDGNSSLIAAVAEVRVQRRPLKNRTD

Experiments:
Experiment in all cases: SPR
[1] = molecular target: Notch1^EGF22-27, C-terminally biotinylated SPR ligand (mouse) (UniProt Q01705)
[2] = molecular target: Jagged1^EGF5-CRD, C-terminally biotinylated SPR ligand (mouse) (UniProt Q9QXX0)
[3] = molecular target: Jagged1 full ectodomain (Jagged1^fe), C-terminally biotinylated SPR ligand (mouse) (UniProt Q9QXX0)
[4] = molecular target: Jagged1^C2-EGF7, C-terminally biotinylated SPR ligand (mouse) (UniProt Q9QXX0)
[5] = molecular target: Jagged1^C2-EGF3,HA, C-terminally biotinylated SPR ligand (mouse) (UniProt Q9QXX0)
[6] = molecular target: Jagged1^C2-EGF13, C-terminally biotinylated SPR ligand (mouse) (UniProt Q9QXX0)
[7] = molecular target: Notch1^EGF8-13, C-terminally biotinylated SPR ligand (mouse) (UniProt Q01705)

Binder	binding [1]	binding [2]	binding [3]	binding [4]	binding [5]	binding [6]	binding [7]
B1	no binding	no binding	binds weakly	binds weakly	binds weakly	binds weakly	
B2	no binding	no binding	binds weakly	binds weakly	binds weakly	binds weakly	
B3							no binding (tested: 1 µM)
